From article PMC5484684, “Intracellular targeting of annexin A2 inhibits tumor cell adhesion, migration, and in vivo grafting” (Scientific Reports, 2017)
Results are given in words; binding and its absence hold for the method and conditions named. For some of these results: Tags and fused reporters may be left off the sequences shown.

Protein sequences, listed by entry. Tags and fused reporters are not part of them.
UniProt P08758: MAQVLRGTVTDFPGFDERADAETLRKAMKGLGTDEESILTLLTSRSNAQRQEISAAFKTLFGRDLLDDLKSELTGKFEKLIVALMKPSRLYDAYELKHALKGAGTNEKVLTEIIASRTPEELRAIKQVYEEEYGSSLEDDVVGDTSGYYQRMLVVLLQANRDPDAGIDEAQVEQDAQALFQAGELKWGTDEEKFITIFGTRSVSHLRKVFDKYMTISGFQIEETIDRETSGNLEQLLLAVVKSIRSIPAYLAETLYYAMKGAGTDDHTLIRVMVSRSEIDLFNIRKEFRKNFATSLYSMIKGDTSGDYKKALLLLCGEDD

Tests used:
Experiment in all cases: phage binding assay; recombinant proteins in 96-well plates; iPhage input 10^9 TU/well; bound phage particles quantified by bacterial infection; TU normalised on an insertless iPhage; both purified
[1] = biological target: human recombinant annexin A5 (human) (UniProt P08758)
[2] = biological target: T1, human recombinant annexin A1 (human) (UniProt P04083)
T1 sequence: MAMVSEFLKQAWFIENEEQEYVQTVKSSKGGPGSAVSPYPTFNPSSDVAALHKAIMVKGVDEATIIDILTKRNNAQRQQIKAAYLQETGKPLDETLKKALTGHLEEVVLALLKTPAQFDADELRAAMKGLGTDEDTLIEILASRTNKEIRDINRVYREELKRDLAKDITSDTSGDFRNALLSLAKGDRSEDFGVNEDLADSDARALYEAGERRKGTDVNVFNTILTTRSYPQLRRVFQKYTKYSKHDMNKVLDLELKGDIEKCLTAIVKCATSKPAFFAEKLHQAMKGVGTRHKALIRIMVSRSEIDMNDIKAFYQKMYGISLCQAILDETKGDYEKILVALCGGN

[3] = biological target: T2, human recombinant annexin A4 (human) (UniProt P09525)
T2 sequence: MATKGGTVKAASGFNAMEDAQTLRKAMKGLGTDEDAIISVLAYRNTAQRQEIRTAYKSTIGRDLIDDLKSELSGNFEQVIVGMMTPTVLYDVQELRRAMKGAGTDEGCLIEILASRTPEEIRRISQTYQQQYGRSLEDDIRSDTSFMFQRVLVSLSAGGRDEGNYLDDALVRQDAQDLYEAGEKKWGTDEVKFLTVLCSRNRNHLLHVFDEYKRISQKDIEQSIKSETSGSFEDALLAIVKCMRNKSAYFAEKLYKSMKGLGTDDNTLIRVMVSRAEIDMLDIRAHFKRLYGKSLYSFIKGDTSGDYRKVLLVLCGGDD

[4] = biological target: T3, GST-fused recombinant LASP1 (UniProt Q14847)
T3 sequence: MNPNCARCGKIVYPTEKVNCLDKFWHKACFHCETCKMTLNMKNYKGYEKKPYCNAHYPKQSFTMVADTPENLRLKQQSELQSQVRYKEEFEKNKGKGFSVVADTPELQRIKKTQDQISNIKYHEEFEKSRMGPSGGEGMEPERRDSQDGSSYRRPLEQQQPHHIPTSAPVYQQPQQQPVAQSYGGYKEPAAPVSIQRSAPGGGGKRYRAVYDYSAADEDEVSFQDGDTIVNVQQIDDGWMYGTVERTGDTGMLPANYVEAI

Measured: binding

LGRFYAASG […-displaying iPhage]
no binding: all assays above
